From PubChem BioAssay AID1347426 (Functional Genomics Laboratory (NCATS/FGL), 2020)
Hit rate of the full screen: of about 31,000 sequences, about 1,400 (4.5%) were called active.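 Rule for the calls: active = median seed-adjusted z-score above 1 or below -1; inactive = the rest.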 This is one part of the list.

Test: Novel Modifiers of Survival Motor Neuron (SMN) Protein: Gene Identification via Genome-wide siRNA Screen;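 note: luminescence tracks full-length SMN protein made from the SMN2 reporter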
Details: HEK293T SMN2-luciferase reporter, siRNA knockdown, 72 h; actives lie on both sides
How it was run: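 Genome-wide siRNA screen (10418 genes, 3 siRNAs each, 1 pmol per well) by reverse transfection in HEK293T cells stably carrying an SMN2-luciferase reporter; luminescence after 72 hours, normalized to negative-control siRNA, log10-transformed, MAD-scored.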

Sequence | median seed-adjusted z-score
GAAAGACCUAUGACGCAUATT against IL1R1 | inactive: 0.135
GCACUAGCAAAGUCCGAGATT against MET | inactive: 0.55
GGCGAAUACAGAUCACAAUTT against ARHGAP5 | inactive: -0.359
AAACGAAUAUGCAAACCAUTT against NAT11 | inactive: 0.37
GAUACGUACUAUGACCGAATT against TGM7 | inactive: 0.244
GGAUGCGUUGAAUAAGUUUTT against MGAT4A | inactive: 0.134
CUCUGAUUAUCAUGAGAUATT against SRGAP2 | inactive: 0.0323
GCGCUUUAGUGACUCAGAATT against STAT5A | inactive: -0.229
GCGAGAUCCUGUUCAAUGATT against GGTLC2 | inactive: -0.288
GAAAUAGUAUGGAUUUUUATT against PRMT6 | inactive: -0.412
CUCUAUGAAUAUUGUAUUATT against BUD31 | inactive: 0.0554
GGAGGACUUCAUUCGAAAATT against PCLO | inactive: -0.734
CCUGCCCUGUGAGUCUUUATT against FOXG1 | inactive: 0.749
GCACUUCAGCCAAAGAUUCTT against WWP2 | inactive: -0.685
GGAAUUAUGCAUUGAAGUATT against ALDH18A1 | inactive: 0.116
GGGUCCAAUUUACUACAGATT against RAB21 | inactive: 0.544
CGGGCGGGUUUAACUCCAATT against PUS1 | inactive: -0.308
CCUACAAGCUCCUAACAAATT against C1GALT1C1 | inactive: 0
GCAUCCUCAUCAACCGCAATT against SAPS1 | active: 1.16
CAGCUAGACUGGAUAGUAATT against ORC2L | inactive: -0.101
AGGAGAUCGUCGUCACUGATT against NNMT | inactive: -0.095
UACCUGAAGUUAAGCCUAATT against CA9 | inactive: 0.0833
GCACUAAUCUGCAAACUGUTT against SPTB | inactive: 0.153
GGAAAGGAGUUGUACGAAATT against NCBP1 | inactive: 0.785
GGUGCACCAAUGUACAUGATT against ITGA2 | inactive: 0.106
GCUCAGUGUGCGAAAUUUATT against MED31 | inactive: -0.267
CGCUGAUAGAGAUCGCAGATT against ZNFX1 | inactive: -0.368

A run of entries from the list above:
Sequence | median seed-adjusted z-score
GGAGGACUUCAUUCGAAAATT against PCLO | inactive: -0.734
CCUGCCCUGUGAGUCUUUATT against FOXG1 | inactive: 0.749
GCACUUCAGCCAAAGAUUCTT against WWP2 | inactive: -0.685

Following part

Sequence | median seed-adjusted z-score
GGACGGUCACGUUUACCUATT against GPR12 | inactive: 0.437
CGGCUAGAAGAGCAACAAATT against MAP4K4 | inactive: 0.474
CCUUCGAAAUUACCAGUAUTT against ZFYVE16 | inactive: 0.314
GGCACUAUUCUGCUAAGAATT against RAPGEF5 | inactive: 0.529
GACUGUCAGGAAACGAGUATT against PDE8B | inactive: 0.217
CCACGAAGAAUGGAUUGAATT against TRIO | inactive: 0.42
CUCUAUUACCUGCUCCAUATT against ZNF311 | inactive: 0.196
CGUCAAUUCAGAUAUUGAATT against BPIL2 | inactive: -0.63
GACUCCCUAUCGUACCGAUTT against LPHN2 | inactive: -0.817
GGAGCGAGGCAACAACAUUTT against RAD54L2 | inactive: -0.0646
GCAUAAUUCGGCAAAGGUUTT against ST8SIA1 | inactive: -0.25
CCUCAAGCCUGUAGAAGAATT against SMNDC1 | active: -1.54
GGACCAUAGUCAGAGUGGATT against IFNB1 | inactive: 0
CCUCUGACAAGUUACCUCATT against LEFTY1 | inactive: 0.383
CGGCUAUAGAAACACUUAUTT against DDX53 | inactive: -0.136
UGAGCAGUGAGAACCCAUATT against PEAR1 | inactive: 0.071
CAACCAUGUUCAGUAUAGATT against SPINK9 | inactive: 0.392
UCUCCAUGGUGGUACAGGATT against PRDX5 | inactive: -0.0386
AGACCUCAGUCACCUAUUATT against CYB5B | inactive: 0
CAUGGGAUUUUGUAAGAGATT against ERAP2 | inactive: 0.081
CACCUUUACUAACAAAGGATT against ACIN1 | inactive: -0.674
GAUGCAAGAUGGGUUUAUUTT against EBPL | inactive: -0.113
CAUCAGCUUCCGCAACUUUTT against LRP3 | active: -1.05
GAGUCAAAGAGGGUGGUAATT against DNAJB7 | inactive: 0.684
GCUAUAACUUUGAUCAAUATT against ZNF267 | inactive: 0.381
GAAGUACCAGUACCGUUAATT against SI | inactive: 0
ACCAGUACCUGGUGACGCATT against B3GALT6 | inactive: 0.169
